Results are given in words; binding and its absence hold for the method and conditions named. Binding calls can cover weak binding; strength is not graded here.

This assay deals with purified human alpha v beta 3 integrin (biotinylated) (human). The assay can be described thus: ORIGEN electrochemiluminescence; antibody dilutions with biotinylated purified integrin, captured on streptavidin beads.

B1: murine anti-integrin antibody B9 (antibody, V domains shown)
VH: QVQLQQSGAELMKPGASVKISCKATGYTFSSYWIEWVKQRPGHGLEWIGEILPRSGNTNYNEKFKGKATFTAETSSNTAYMQLSSLTPEDSAVYYCSSRGVRGSMDYWGQGTSVTVSS
VL: DIQMTQTTSSLSASLGDRVTITCRSSQDISNFLNWYQQKPDGTVKLLIYYTSTLHSGVPSRFSGSGSGTDYSLTISNLEQEDIATYFCQQGNTLPWTFGGGTNLEIKR
On to B1, for which the binding entry is “binds”.

(Values after US20020062009A1 (GlaxoSmithKline, published 2002).)
